{"source": "paper doi:10.1101/2024.04.12.589144", "target": "T1, PhoH-like protein domain-containing protein YbeZ (P. aeruginosa) (UniProt Q9HX38)", "T1 sequence": "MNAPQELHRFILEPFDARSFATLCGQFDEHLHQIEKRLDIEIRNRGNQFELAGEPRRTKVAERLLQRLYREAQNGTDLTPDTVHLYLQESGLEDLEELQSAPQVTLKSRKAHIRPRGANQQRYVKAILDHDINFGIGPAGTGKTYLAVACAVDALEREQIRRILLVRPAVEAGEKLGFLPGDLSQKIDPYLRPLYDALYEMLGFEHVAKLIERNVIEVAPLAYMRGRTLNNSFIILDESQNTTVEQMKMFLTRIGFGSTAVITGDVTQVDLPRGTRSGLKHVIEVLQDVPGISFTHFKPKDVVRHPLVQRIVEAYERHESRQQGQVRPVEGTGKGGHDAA", "experiment": "two-hybrid", "note": "No constants are given. Whether binding was seen depends on the method and setting. Binding calls can cover weak binding; strength is not graded here."}
{"substance": "ribosomal silencing factor RsfS (P. aeruginosa)", "values": [{"measurement": "binding", "value": "binds"}]}
